Experimental data as given in paper PMC12127386.
Results are given in words; binding and its absence hold for the method and conditions named. Binding seen in cells or lysates may run through a third protein. Some entries that bind do so weakly or less than the wild type. Values belong to the substance of their own block, whether it stands above or below them.

Chains of the proteins cited; added tags and fusions are not shown. Lines headed by an entry give the natural chain unless they say otherwise; changes in a name come on top. Residues count along the entry.
UniProt P40763: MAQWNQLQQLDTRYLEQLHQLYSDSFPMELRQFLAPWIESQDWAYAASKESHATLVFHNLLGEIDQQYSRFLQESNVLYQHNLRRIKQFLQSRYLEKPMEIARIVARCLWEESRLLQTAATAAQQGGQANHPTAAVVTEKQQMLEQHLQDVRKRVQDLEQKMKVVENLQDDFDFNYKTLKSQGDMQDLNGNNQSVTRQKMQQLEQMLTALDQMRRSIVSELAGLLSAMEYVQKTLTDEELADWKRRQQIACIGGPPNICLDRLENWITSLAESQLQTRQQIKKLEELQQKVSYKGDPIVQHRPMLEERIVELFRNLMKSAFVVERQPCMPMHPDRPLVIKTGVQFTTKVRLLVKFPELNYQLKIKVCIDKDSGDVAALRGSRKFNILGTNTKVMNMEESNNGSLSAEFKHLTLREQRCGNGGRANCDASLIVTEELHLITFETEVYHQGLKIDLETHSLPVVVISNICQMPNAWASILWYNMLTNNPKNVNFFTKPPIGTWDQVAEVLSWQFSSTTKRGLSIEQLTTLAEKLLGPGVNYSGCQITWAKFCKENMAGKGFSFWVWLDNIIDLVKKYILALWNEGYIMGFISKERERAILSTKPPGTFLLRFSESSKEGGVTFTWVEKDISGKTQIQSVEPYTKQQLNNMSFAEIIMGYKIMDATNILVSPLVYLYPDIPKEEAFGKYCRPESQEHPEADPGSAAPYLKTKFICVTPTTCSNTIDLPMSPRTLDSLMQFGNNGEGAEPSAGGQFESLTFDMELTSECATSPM
STAT3 fragment 1-321 aa: residues 1-321 of P40763
UniProt Q96H22: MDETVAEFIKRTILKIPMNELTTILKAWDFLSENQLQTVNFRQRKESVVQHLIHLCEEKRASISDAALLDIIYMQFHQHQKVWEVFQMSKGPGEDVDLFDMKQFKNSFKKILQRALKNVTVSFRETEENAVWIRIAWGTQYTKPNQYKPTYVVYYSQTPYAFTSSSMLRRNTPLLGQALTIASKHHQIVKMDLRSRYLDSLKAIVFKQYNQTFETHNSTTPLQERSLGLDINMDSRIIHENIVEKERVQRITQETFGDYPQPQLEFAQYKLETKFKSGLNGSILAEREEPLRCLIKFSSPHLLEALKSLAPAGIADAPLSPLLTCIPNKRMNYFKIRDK

Columns and labels:
[1] = target: STAT3, partner of the CENPN fragments in the protein truncation assay (Figure 6D, E) (UniProt P40763); test: co-IP; protein truncation assay: truncated sequences in pcDNA3.1, 293T cells transfected, immunoprecipitation of the fragments, western blotting
[2] = target: STAT3 fragment 1-321 aa (UniProt P40763); test: as above
[3] = target: Signal transducer and activator of transcription 3 (STAT3), as in the GST pull-down of Figure 6C (UniProt P40763); test: pull-down; GST pull-down; which protein carried GST and where the proteins came from are not told
[4] = target: Signal transducer and activator of transcription 3 (STAT3), as in the coimmunoprecipitation of Figure 6B (UniProt P40763); test: co-IP; coimmunoprecipitation of CENPN and STAT3; cells, antibodies and bait not told

- binding [1]: binds
Substance: CENPN fragment 186-339 aa (from UniProt Q96H22 186-339) (domain or fragment)

- binding [2]: binds
Substance: CENPN, partner of the STAT3 fragments in the protein truncation assay (Figure 6D, E) (from UniProt Q96H22 1-339)

- binding [3]: binds
Substance: Centromere protein N (CENPN), as in the GST pull-down of Figure 6C (from UniProt Q96H22 1-339)

- binding [4]: binds
Substance: Centromere protein N (CENPN), as in the coimmunoprecipitation of Figure 6B (from UniProt Q96H22 1-339)
